From US20070020687A1
Results are given in words; binding and its absence hold for the method and conditions named. Some results given as binding are weak or reduced against the parent protein; the word gives no strength.

Protein sequences, listed by entry. Tags and fused reporters are not part of them. Lines headed by an entry give the natural chain unless they say otherwise; changes in a name come on top. Chains listed by the source or under a name are the forms on record and can include a tag or linker.
UniProt P61586: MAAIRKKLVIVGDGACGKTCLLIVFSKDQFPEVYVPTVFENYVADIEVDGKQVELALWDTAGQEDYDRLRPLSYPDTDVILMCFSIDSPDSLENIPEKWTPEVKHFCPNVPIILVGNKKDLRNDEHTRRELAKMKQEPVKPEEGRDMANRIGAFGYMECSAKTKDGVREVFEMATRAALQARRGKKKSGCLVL
ROCK1 effector-GBD peptide, histidine tagged, with engineered carboxy terminal cysteine (Q13464, form named): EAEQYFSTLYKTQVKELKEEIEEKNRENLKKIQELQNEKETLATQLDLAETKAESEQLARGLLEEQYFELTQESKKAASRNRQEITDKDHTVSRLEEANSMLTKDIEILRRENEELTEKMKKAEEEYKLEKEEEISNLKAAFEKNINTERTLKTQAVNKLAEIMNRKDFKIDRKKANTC

How the values were obtained:
[1] = target: active RhoA, sample not stated (Homo sapiens (Human)) (UniProt P61586); assay: G-LISA with TCA Antigen Presenting Buffer
[2] = target: constitutively active recombinant RhoA, glutamine 63 to leucine, histidine tagged (Homo sapiens (Human)) (UniProt P61586); assay: RhoA G-LISA, ROCK1-GBD on maleimide plate, luminometry
[3] = target: constitutively active recombinant RhoA, glutamine 63 to leucine, histidine tagged (Homo sapiens (Human)) (UniProt P61586); assay: G-LISA on maleimide plates (FIG. 2)

Measured: binding

ROCK1 effector-GBD peptide, histidine tagged, with engineered carboxy terminal cysteine (from UniProt Q13464 847-1024)
binds: all assays above
